Reference: publication PMC12421412

The chains behind the UniProt entries cited, without tags or fusion partners. Residues count along the entry.
UniProt Q92673, residues 82-2214: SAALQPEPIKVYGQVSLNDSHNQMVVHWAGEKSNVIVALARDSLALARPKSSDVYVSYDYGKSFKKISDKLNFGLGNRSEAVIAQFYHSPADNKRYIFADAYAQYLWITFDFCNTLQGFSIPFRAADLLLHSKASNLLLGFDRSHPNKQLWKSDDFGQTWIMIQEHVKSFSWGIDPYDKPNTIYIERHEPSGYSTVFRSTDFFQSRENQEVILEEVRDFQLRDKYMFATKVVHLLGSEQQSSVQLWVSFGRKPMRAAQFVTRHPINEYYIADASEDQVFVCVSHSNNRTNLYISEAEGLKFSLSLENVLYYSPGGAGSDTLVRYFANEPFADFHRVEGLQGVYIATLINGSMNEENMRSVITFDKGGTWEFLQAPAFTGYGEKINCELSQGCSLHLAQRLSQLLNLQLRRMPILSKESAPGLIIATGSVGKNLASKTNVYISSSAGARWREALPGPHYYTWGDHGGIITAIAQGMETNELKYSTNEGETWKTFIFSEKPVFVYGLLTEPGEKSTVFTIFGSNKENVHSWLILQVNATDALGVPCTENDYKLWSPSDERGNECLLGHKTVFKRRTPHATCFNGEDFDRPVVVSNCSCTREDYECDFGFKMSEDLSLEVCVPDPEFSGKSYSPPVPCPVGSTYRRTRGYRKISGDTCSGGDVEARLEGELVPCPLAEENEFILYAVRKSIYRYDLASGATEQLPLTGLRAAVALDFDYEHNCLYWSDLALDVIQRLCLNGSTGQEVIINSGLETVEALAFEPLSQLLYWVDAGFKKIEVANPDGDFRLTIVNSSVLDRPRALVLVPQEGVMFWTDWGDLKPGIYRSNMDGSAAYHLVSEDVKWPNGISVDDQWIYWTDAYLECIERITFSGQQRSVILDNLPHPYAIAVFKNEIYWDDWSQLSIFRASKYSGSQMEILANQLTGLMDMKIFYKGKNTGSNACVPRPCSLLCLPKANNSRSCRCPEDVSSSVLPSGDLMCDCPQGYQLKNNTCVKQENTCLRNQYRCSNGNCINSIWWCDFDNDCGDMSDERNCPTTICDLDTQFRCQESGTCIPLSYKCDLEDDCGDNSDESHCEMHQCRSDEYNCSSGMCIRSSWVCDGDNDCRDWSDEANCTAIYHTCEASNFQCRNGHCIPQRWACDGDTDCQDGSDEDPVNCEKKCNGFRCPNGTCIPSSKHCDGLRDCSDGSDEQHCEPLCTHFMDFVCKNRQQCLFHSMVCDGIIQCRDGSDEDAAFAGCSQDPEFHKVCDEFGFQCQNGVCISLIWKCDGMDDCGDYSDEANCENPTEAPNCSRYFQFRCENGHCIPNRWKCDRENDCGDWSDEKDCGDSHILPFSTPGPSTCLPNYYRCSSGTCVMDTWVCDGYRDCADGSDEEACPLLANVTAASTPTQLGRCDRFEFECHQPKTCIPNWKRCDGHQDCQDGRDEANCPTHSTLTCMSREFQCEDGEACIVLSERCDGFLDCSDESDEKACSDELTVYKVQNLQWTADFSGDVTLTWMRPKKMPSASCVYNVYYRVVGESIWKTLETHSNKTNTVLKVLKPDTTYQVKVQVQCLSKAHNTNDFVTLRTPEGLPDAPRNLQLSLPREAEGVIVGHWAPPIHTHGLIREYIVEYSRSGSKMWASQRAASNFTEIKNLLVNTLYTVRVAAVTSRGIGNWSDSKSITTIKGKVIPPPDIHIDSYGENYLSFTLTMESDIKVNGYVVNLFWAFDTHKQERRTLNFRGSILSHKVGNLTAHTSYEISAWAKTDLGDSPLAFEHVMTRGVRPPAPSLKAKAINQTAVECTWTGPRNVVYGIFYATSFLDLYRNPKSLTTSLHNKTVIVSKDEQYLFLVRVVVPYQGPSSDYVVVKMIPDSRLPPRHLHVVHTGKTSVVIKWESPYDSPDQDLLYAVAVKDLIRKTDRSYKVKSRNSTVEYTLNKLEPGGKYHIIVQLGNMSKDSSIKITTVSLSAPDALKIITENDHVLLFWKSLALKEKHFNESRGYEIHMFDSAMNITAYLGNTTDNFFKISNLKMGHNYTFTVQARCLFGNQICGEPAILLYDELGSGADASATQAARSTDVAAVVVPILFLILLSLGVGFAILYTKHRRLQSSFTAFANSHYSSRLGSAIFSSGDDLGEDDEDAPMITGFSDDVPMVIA
UniProt P05067, residues 18-770: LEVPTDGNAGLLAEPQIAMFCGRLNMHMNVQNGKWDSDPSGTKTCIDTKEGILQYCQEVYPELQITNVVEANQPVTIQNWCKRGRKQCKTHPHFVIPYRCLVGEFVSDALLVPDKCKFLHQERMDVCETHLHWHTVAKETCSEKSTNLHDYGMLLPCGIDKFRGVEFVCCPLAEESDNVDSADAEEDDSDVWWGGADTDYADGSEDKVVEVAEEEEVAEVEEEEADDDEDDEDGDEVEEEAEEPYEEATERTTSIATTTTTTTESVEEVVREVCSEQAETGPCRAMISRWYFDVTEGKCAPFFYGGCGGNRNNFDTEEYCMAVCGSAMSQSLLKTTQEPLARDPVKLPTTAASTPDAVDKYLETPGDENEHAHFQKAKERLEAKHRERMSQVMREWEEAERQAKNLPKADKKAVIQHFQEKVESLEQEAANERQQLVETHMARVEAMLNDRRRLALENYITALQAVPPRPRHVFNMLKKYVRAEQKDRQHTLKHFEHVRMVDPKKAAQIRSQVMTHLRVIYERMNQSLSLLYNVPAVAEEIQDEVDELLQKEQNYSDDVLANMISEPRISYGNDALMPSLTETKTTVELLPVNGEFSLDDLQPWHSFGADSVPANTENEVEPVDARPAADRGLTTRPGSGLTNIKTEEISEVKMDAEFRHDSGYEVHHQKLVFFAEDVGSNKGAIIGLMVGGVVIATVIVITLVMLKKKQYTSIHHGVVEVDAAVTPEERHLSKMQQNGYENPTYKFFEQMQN

Molecular target: SORLA^WT (human wildtype Sortilin-related receptor with A-type repeats) stably expressed in SH-SY5Y cells (human) (UniProt Q92673)
Assay: affinity purification with mass spectrometry; SILAC-labelled SH-SY5Y cells overexpressing SORLA; lysis in Tris-HCl pH 8.0, 20 mM NaCl, 0.6% sodium deoxycholate, 0.6% NP-40; immunoprecipitation with goat anti-human SORLA IgG or non-immune IgG on magnetic beads

binding: binds
Substance: amyloid precursor protein (APP), in SH-SY5Y cell lysate (from UniProt P05067 18-770)

No constants are given. Whether binding was seen depends on the method and setting. Binding seen in cells or lysates may run through a third protein. A yes stands for co-enrichment or nearness to the bait. Other partners may have been found.
